According to the supplement of paper PMC12819154, “High-throughput peptide-centric local stability assay extends protein–ligand identification to membrane proteins, tissues and bacteria” (Nature Structural & Molecular Biology, 2025):
This is one part of the list. Most values lie at the level of the controls, where differences are scatter.

Sequences of proteins named here, by UniProt entry; tags and fusion partners are left off. A change or cut given only in a name is not applied to a line headed by its entry.
UniProt Q8JZL0: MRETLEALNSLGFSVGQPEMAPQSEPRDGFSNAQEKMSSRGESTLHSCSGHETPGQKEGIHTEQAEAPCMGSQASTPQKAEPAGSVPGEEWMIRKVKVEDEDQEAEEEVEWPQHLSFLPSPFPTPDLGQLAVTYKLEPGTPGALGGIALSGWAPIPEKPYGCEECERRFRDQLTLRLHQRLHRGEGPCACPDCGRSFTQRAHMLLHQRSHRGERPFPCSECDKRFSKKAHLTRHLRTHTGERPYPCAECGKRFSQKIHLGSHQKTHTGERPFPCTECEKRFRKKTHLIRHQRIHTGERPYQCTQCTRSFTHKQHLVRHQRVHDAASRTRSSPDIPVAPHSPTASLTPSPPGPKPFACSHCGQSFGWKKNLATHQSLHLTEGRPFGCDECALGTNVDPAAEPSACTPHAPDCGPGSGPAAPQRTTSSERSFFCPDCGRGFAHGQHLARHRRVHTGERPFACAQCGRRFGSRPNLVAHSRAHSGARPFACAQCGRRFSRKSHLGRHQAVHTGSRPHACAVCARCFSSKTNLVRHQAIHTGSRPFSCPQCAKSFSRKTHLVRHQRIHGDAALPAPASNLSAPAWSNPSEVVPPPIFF
UniProt Q8CBH5: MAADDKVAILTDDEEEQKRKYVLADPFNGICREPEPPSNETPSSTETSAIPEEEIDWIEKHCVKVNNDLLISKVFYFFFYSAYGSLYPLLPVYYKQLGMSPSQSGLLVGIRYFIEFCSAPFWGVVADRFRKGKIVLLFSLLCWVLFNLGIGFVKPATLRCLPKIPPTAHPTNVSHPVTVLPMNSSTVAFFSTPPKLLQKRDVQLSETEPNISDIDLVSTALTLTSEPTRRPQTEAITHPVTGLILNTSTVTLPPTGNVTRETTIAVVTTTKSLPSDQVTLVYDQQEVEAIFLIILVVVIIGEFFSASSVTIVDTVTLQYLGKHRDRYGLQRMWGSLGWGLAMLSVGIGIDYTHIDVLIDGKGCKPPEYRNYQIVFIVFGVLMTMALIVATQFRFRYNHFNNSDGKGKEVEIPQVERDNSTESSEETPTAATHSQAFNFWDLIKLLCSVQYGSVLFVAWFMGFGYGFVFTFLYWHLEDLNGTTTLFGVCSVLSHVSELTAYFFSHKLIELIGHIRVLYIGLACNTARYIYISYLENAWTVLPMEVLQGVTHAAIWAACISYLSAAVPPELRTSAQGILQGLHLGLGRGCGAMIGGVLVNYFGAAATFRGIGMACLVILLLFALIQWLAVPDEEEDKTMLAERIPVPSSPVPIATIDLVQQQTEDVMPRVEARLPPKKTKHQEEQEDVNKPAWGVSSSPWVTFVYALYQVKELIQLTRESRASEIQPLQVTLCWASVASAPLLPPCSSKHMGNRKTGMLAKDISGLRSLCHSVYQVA
UniProt Q8CIM8, whole entry: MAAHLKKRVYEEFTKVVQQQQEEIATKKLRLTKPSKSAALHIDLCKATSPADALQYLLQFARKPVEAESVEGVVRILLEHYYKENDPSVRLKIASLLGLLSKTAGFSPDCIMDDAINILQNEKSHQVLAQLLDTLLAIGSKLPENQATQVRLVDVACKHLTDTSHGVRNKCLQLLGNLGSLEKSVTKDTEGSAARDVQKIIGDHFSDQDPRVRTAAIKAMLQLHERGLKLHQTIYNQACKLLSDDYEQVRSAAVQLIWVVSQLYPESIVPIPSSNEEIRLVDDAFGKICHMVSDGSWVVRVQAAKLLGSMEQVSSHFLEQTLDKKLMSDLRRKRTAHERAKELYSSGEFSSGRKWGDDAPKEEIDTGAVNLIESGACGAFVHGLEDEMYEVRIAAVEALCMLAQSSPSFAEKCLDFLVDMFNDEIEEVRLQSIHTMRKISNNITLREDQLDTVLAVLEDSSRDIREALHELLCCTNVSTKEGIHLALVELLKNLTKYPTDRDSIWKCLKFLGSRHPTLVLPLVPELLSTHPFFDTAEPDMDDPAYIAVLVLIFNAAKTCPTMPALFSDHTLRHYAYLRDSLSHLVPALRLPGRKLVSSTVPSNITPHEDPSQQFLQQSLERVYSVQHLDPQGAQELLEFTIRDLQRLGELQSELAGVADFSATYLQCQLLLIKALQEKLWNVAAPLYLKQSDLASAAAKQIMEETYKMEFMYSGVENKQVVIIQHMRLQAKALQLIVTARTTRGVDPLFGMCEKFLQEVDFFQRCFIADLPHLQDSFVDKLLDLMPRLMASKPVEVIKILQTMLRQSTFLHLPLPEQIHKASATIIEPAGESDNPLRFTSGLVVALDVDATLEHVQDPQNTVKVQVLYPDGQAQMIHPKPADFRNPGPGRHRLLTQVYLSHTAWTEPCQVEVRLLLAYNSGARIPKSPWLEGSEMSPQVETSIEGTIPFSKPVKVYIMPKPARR
UniProt Q8CG79: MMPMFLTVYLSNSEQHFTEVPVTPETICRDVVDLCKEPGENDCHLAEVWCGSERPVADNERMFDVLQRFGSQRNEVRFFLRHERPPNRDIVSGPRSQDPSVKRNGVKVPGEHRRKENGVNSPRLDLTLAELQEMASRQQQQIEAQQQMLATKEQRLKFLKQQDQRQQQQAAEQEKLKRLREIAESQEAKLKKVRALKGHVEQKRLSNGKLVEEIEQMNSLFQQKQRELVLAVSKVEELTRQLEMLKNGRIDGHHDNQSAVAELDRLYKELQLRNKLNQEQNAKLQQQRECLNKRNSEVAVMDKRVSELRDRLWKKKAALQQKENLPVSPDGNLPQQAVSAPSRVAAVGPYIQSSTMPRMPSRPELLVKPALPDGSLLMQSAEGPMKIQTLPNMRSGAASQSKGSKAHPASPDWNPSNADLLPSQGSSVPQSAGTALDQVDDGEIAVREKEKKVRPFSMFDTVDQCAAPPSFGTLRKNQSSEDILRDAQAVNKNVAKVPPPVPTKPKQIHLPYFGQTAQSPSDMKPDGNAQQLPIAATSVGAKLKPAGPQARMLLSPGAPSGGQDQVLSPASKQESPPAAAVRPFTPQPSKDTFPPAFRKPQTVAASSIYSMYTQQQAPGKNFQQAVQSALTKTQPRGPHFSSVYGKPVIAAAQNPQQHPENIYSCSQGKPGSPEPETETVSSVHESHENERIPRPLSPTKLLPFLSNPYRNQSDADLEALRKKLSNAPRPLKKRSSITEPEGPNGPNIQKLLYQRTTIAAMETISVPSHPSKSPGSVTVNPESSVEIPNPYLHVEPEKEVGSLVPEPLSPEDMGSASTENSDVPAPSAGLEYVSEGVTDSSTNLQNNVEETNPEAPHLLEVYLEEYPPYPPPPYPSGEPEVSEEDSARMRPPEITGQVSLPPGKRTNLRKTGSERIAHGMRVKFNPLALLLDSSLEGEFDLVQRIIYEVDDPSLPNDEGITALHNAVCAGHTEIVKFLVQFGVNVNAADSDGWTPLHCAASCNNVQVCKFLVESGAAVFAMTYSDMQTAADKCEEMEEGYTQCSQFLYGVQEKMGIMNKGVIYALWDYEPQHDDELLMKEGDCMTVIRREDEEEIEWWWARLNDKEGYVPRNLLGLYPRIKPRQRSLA
UniProt Q8JZM0: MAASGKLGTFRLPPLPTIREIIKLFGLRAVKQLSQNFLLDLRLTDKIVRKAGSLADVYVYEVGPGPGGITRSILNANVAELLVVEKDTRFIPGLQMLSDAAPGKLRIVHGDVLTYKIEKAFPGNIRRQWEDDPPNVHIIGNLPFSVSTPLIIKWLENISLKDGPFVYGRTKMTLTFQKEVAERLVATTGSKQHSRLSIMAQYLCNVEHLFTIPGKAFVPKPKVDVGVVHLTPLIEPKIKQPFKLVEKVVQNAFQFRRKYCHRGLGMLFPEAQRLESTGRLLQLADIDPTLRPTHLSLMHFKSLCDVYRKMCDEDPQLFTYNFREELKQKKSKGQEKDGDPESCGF
UniProt Q8CEI1: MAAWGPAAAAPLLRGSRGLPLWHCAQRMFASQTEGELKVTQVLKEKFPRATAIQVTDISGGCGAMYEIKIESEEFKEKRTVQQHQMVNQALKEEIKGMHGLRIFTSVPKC
UniProt Q8K0B2: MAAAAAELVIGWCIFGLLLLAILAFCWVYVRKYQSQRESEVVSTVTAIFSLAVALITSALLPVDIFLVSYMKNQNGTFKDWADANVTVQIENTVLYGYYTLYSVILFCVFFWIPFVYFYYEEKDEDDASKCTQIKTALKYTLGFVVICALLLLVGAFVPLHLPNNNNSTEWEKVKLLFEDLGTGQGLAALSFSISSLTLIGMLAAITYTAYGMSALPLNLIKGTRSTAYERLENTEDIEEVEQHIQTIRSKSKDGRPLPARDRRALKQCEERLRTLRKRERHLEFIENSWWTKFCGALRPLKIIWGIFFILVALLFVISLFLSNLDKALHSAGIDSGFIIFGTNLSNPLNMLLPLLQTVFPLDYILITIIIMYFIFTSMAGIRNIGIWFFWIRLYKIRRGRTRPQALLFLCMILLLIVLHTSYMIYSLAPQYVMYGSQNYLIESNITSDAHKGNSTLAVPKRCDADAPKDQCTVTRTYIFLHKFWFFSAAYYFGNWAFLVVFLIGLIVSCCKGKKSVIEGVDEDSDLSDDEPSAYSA
UniProt Q8CFI0: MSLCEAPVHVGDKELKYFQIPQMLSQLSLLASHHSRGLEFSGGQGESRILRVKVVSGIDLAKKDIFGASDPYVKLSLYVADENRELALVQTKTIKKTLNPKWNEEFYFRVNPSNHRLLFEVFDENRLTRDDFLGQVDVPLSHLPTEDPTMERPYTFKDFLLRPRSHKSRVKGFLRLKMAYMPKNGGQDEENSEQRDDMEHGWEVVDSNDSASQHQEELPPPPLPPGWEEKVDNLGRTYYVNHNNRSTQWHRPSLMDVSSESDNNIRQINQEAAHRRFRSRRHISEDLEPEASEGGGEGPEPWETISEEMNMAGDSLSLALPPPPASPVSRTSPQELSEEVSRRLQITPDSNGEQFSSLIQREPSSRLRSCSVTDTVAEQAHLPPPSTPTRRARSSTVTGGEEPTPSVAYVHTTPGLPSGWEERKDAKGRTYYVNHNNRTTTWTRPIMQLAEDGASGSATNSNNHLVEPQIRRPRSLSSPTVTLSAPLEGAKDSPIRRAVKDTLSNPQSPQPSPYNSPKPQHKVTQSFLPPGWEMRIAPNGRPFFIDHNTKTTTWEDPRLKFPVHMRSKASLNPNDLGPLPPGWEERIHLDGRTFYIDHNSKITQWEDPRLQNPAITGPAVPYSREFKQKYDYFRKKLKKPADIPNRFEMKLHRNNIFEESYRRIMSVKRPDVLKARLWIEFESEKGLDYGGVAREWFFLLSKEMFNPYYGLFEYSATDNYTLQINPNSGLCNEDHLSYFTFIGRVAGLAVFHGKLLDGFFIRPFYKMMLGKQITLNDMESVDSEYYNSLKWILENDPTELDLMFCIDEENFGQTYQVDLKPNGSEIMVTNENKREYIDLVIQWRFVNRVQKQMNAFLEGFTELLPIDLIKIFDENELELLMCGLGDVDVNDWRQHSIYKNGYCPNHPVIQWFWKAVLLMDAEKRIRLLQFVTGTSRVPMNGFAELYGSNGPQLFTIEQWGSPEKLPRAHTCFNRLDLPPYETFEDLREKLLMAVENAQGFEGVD
UniProt Q8CE96: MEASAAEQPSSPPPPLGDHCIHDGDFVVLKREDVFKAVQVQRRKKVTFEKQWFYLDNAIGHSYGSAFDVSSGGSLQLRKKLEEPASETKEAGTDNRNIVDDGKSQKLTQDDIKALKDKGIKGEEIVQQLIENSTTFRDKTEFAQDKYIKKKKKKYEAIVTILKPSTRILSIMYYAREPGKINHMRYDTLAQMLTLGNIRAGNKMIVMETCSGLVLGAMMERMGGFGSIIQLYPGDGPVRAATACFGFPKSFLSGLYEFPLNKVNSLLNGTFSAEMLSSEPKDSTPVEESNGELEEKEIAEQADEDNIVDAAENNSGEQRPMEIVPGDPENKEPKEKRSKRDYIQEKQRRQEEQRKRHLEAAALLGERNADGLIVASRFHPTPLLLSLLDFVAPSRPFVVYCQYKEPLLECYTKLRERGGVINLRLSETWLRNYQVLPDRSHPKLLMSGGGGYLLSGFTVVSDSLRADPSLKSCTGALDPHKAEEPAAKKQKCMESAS
UniProt Q8CCC3: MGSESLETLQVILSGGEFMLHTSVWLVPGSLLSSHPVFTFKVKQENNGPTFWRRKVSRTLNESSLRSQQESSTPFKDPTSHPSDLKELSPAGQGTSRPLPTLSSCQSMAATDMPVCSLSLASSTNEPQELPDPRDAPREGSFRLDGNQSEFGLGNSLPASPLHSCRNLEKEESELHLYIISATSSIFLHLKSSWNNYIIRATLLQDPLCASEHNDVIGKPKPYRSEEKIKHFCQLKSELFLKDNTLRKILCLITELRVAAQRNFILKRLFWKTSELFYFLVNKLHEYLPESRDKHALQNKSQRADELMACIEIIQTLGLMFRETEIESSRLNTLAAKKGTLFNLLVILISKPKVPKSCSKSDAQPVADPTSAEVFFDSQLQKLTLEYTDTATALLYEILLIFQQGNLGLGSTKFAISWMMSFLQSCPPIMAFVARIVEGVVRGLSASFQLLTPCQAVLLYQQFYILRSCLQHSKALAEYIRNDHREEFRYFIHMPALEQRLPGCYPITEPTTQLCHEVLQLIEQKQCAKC

compound: CN[C@@H]1C[C@H]2O[C@@](C)([C@@H]1OC)n1c3ccccc3c3c4c(c5c6ccccc6n2c5c31)C(=O)NC4 [staurosporine]; assay: log2 fold change of tryptic peptide abundance, ligand vs vehicle (limited proteolysis) (log2 ratio); higher = more trypsin-susceptible (destabilized); settings: ligand concentration: 20 uM; sample: mouse liver crude lysate; replicate design: treated separately

| Target | log2 fold change |
| --- | --- |
| UniProt Q8JZL0 (peptide sequence: GESTLHSCSGHETPGQK, peptide start residue: 41) | 0.218 |
| UniProt Q8CJF9 (peptide sequence: EVWFGFHQSVRPAMWK, peptide start residue: 195) | -0.323 |
| UniProt Q8CI43 (peptide sequence: AKAEPAAPQAPAK, peptide start residue: 33) | 0.317 |
| UniProt Q8CFE5 (peptide sequence: SVYLPGQTSPK, peptide start residue: 986) | -0.186 |
| UniProt Q8CBH5 (peptide sequence: EVEIPQVER, peptide start residue: 408) | -0.208 |
| UniProt Q8CJ61 (peptide sequence: DVDSRPEIQRLDT, peptide start residue: 196) | -0.134 |
| UniProt Q8CFE6 (peptide sequence: KEPMRSVQK, peptide start residue: 461) | 0.143 |
| UniProt Q8K0S9 (peptide sequence: AFSAVVPVSK, peptide start residue: 288) | 0.0489 |
| UniProt Q8CDG3 (peptide sequence: AFLIEPEHVNTVGYGKDR, peptide start residue: 166) | -0.134 |
| UniProt Q8CBY3 (peptide sequence: CFTACESEEDKDRTEK, peptide start residue: 301) | -0.153 |
| UniProt Q8CIW5 (peptide sequence: KEDDDKELQTASIFGSAK, peptide start residue: 562) | 0.333 |
| UniProt Q8CIM8 (peptide sequence: ICHMVSDGSWVVR, peptide start residue: 288) | -0.648 |
| UniProt Q8CG79 (peptide sequence: NKLNQEQNAK, peptide start residue: 274) | -0.569 |
| UniProt Q8CJH3 (peptide sequence: ENQDYVPGER, peptide start residue: 1844) | -0.262 |
| UniProt Q8CI52 (peptide sequence: VFHISAER, peptide start residue: 334) | 0.156 |
| UniProt Q8JZM0 (peptide sequence: DGPFVYGR, peptide start residue: 162) | 0.254 |
| UniProt Q8CEI1 (peptide sequence: TVQQHQMVNQALKEEIK, peptide start residue: 80) | 0.141 |
| UniProt Q8CI32 (peptide sequence: EAQALVKDK, peptide start residue: 100) | -0.501 |
| UniProt Q8K0B2 (peptide sequence: DGRPLPAR, peptide start residue: 254) | -0.17 |
| UniProt Q8CFE4 (peptide sequence: QPQQRPTDMSALNNLFGPQKPK, peptide start residue: 829) | -0.153 |
| UniProt Q8CJG0 (peptide sequence: SGNIPAGTTVDTK, peptide start residue: 728) | -0.258 |
| UniProt Q8CJ26 (peptide sequence: TVELGDPDRDQR, peptide start residue: 91) | -0.202 |
| UniProt Q8CFI0 (peptide sequence: RIMSVKR, peptide start residue: 663) | -0.315 |
| UniProt Q8CE96 (peptide sequence: RDYIQEK, peptide start residue: 340) | 0.229 |
| UniProt Q8CCC3 (peptide sequence: DAPREGSFR, peptide start residue: 135) | 0.38 |

As a working copy, part of the list above.

| Target | log2 fold change |
| --- | --- |
| UniProt Q8CG79 (peptide sequence: NKLNQEQNAK, peptide start residue: 274) | -0.569 |
| UniProt Q8CJH3 (peptide sequence: ENQDYVPGER, peptide start residue: 1844) | -0.262 |
| UniProt Q8CI52 (peptide sequence: VFHISAER, peptide start residue: 334) | 0.156 |
| UniProt Q8JZM0 (peptide sequence: DGPFVYGR, peptide start residue: 162) | 0.254 |
| UniProt Q8CEI1 (peptide sequence: TVQQHQMVNQALKEEIK, peptide start residue: 80) | 0.141 |
| UniProt Q8CI32 (peptide sequence: EAQALVKDK, peptide start residue: 100) | -0.501 |
